From ChEMBL document CHEMBL3988442, “University of Dundee, Small-Polar-MMV Screening Library” (2021).

Mtb growth Cornell: 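Whole-cell assay for inhibitors of Mycobacterium tuberculosis growth, labelled Cornell in the record; the read-out is not stated. The concentration is filed as 10 mM, unlikely as a test dose, so the dose is not known. The record gives no direction; compounds strong in two other growth screens of this library score well above the rest, so higher reads as stronger inhibition. Of about 53,000 compounds tested this way, about 900 (1.7%) reached 50% or more in at least one test.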
Mtb heat-shock: 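Assay on Mycobacterium tuberculosis, filed only as a heat shock assay from Cornell; the read-out is not stated. The concentration is filed as 10 mM, unlikely as a test dose, so the dose is not known. Direction is inferred from retests: higher values go with stronger inhibition. Of about 69,000 compounds tested this way, about 930 (1.4%) reached 50% or more in at least one test.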

Values are the deposited “Percent Effect”, in %. The record does not define 0% and 100%; most values in the screen are far below 50% and negative numbers occur (in some assays of this library far below -100). Compounds were drawn at random from those tested, without regard to their results. A dash means the value is not listed here; it may have been measured.

structure | Mtb growth Cornell | Mtb heat-shock
CN(C)c1ccc(CN2CCN(c3ccc(C#N)cc3)C(=O)C2)cn1 | - | -1.193
Cc1nc(C(=O)N2CCN(c3ccc(Cl)c(Cl)c3)CC2)cs1 | - | -1.114
CCCc1n[nH]c(C2CN(C(=O)c3cc(F)ccc3OC)CCO2)n1 (centres undefined) | 23.33 | 4.863
O=C(NC1CCN(c2ccccc2OC(F)F)C1)c1c[nH]nn1 (centres undefined) | 19.3 | 18.42
CC(O)C1CCN(Cc2nccn2CC(F)(F)F)CC1 (centres undefined) | -5.082 | 18.4
COc1ccc(-c2nnc(CN3CCCC3Cn3cncn3)o2)cc1 (centres undefined) | - | -19.41
CN(Cc1cc(-c2ccncc2)no1)C(=O)[C@@H]1CSCN1C | 17.71 | -2.868
CN(C)C(CNC(=O)c1cccc(C(N)=O)c1)c1ccccc1Cl (centres undefined) | -40.94 | 10.58
O=C(NC1CCC(O)CC1)c1cnc2c(cnn2C2CCCC2)c1 (centres undefined) | -22.4 | 12.58
CCc1ncc2c(n1)CN(CCCOc1ccc(C#N)cc1)CC2 | 37.2 | 11.45
CNc1nc(CNC(=O)Nc2cccc(CC(F)(F)F)c2)cs1 | - | 8.865
COc1ncc(NC(=O)Nc2cc(C)ccc2OC)cn1 | 6.637 | 10.26
O=C(O)CC[C@@H]1CN(c2ccncc2)CC[C@@H]1N1CCOCC1 | -1.243 | -4.368
COc1ncccc1C(=O)N1CC(c2nc(-c3ccccn3)no2)C1 | -3.793 | -17.69
[H][C@@]12CN(C(=O)CC(F)(F)F)C[C@]1([H])C(=O)N(CC1CC1)C2 | - | -3.901
Cn1ccnc1CNC(=O)N(CCCO)C1CCCc2ccccc21 (centres undefined) | -10.42 | -13.93
O=C(CCn1ccc2ccccc21)N1CCC(Nc2cccnc2)CC1 | -23.82 | -0.8267
CS(=O)(=O)N1CCOCC2(CCN(C(=O)c3ccncc3)CC2)C1.O=C(O)C(F)(F)F | 9.95 | -46.53
Cc1nc(C(=O)N[C@H]2COC[C@@H]2N2CCCCC2)cs1 | -9.152 | -0.7621
COc1ccc(C(=O)C2CCCN(CCc3ccccc3)C2)c(OC)c1 (centres undefined) | 32.73 | 17.94
COc1cc(NC(=O)c2cscn2)ncn1 | -7.106 | -0.8312
CC(=O)C1(c2ccccc2)CCN(C(=O)C2CNCCO2)CC1 (centres undefined) | 16.55 | -3.934
c1cnc(OCc2nnc3n2CCN(CC2CCOCC2)C3)nc1 | 11.74 | 8.098
CN(C)c1cccc(C2CCCN2S(N)(=O)=O)c1 (centres undefined) | 5.131 | 13.86
Cc1ccc(-c2nc(CN3CC(n4nc(C)cc4C)C3)no2)cc1 | 102.5 | 24.47
CN1C[C@@H](C(=O)NC2CC2)[C@@]2(COc3ccc(F)cc3C2=O)C1 | -27.17 | -20.62
O=C1C(Sc2nc(=O)ccn2C2CC2)CCN1c1ccccc1F (centres undefined) | - | -2.726
CCc1nnc2n1CCN(Cc1ncc(-c3ccc(Cl)cc3)o1)C2 | - | -1.022
COC(=O)NCC(=O)NC1(C)CCc2ccccc2C1 (centres undefined) | - | 11.43
CC(O)CN1CCN(C(=O)c2cccn2Cc2ccccc2)CC1 (centres undefined) | - | 3.931
COCCN(C)C(C(=O)O)c1ccc(C)c(C)c1 (centres undefined) | -10.41 | -9.665
CNC(=O)CN1CCOCC12CCN(Cc1ccncc1)CC2.O=C(O)C(F)(F)F.O=C(O)C(F)(F)F | 15.45 | -37.23
CCc1cc(N2CCS(=O)(=O)CC2)n2nc(C)c(C)c2n1 | -52.98 | -8.583
CN(C)C(C)(C)CNCc1c[nH]nc1-c1cc2ccccc2o1 | -20.57 | -12.61
Cc1cc(C)n(CC2CCCN2CCCS(=O)(=O)N(C)C)n1 (centres undefined) | - | 10.76
Cc1ccc(C(C)(O)CNC(=O)c2sccc2Br)o1 (centres undefined) | 40.27 | 11.6
Cc1ncc(CN2CC[C@@](C)(O)[C@H](Oc3cccc(F)c3)C2)cn1 | - | -38.32
O=C(O)C(F)(F)F.[H][C@@]12CN(C(=O)c3ccco3)C[C@]1([H])C(=O)N(Cc1cccc(C)n1)C2 | 17.21 | -31.32
[H][C@@]12CS(=O)(=O)C[C@]1([H])N(Cc1ccc(CCC)o1)CCN2C(=O)CC(C)C | -28.92 | 22.67
Cc1n[nH]c(SCCNC2CCN(c3nc4ccccc4s3)CC2)n1 | 44.91 | -17.86
c1csc(-c2nc(CN3CCCC3Cn3cncn3)co2)c1 (centres undefined) | 10.49 | -9.666
CN1CC(=O)N(c2cccc(F)c2)CC12CCN(CC1CC1)C2.O=C(O)C(F)(F)F.O=C(O)C(F)(F)F (centres undefined) | - | -18.77
O=C(O)C(F)(F)F.O=C(O)C(F)(F)F.c1cnc(N2CCC3(CC2)CC(NCC2CC2)c2ccccc23)nc1 (centres undefined) | -3.437 | -34.09
c1csc(CN2CCC3(CC2)COCCN3CC2CC2)n1 | 4.657 | -20.56
O=C(c1ccc(Cl)s1)N1CCC2(COc3ncccc3S(=O)(=O)N2)C1 (centres undefined) | - | -38.33
c1nc2n(n1)CC(NCc1nc(-c3ccsc3)no1)CC2 (centres undefined) | 13.5 | 22.5
Cc1ccc(S(=O)(=O)NC(=O)COc2cccc(C(N)=O)c2)s1 | - | -17.74
CCCC(=O)NC1CCN(c2ccccc2S(=O)(=O)CC)CC1 | - | -20.96
Cn1cc(C[C@H]2[C@@H](O)CCN2C(=O)c2ccc[nH]2)cn1 | -42.17 | 1.142

For reference, 3 entries once more:

structure	Mtb growth Cornell	Mtb heat-shock
[H][C@@]12CS(=O)(=O)C[C@]1([H])N(Cc1ccc(CCC)o1)CCN2C(=O)CC(C)C	-28.92	22.67
CCc1ncc2c(n1)CN(CCCOc1ccc(C#N)cc1)CC2	37.2	11.45
CCCC(=O)NC1CCN(c2ccccc2S(=O)(=O)CC)CC1	-	-20.96